Results reported in patent US20230192899A1.
These are yes or no findings as the source states them, for the method shown. Some binding calls cover weakened binding; strength is not graded here.

Assays:
[1] = target: T1, mouse membrane-presented CD47 on Tg32 mouse erythrocytes (mouse) (UniProt Q61735); assay: flow cytometry on Tg32 mouse erythrocytes (FIG. 21); no signal at 0.1 µg/ml
T1 sequence (looked up): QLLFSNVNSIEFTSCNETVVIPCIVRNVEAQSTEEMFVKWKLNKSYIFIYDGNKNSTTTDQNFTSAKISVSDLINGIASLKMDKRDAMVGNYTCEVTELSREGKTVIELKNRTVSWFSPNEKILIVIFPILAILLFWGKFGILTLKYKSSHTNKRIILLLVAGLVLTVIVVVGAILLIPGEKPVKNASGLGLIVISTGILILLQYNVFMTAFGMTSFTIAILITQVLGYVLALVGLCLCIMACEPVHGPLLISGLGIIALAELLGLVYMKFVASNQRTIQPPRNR

[2] = target: T2, mouse CD47 protein (ELISA coat) (mouse) (UniProt Q61735); assay: direct ELISA (FIG. 14)
T2 sequence (looked up): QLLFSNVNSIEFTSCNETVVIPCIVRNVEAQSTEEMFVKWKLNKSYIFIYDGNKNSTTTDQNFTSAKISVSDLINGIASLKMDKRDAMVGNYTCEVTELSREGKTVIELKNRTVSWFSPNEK

binding [1]: binds | binding [2]: binds
B1: A-D5 anti-CD47 IgG1 (antibody, V domains shown)
VH: QVQLVQSGAEVKKPGESLKISCKGSGYTFTNYYIFWVRQMPGKGLEWMGIINPVDGDTNYNPSFQGQVTISADKSISTAYLQWSSLKASDTAMYYCARGGYTMDRWGQGTLVTVSS
VL: DIVMTQSPLSLPVTPGEPASISCRSSQSLLHSNGYNYLHWYLQKPGQSPQLLIYKVSNRLSGVPDRFSGSGSGTDFTLKISRVEAEDVGVYYCFQNTHTPRTFGGGTKVEIK
